# Measured values taken from PubChem BioAssay AID2685 (National Center for Advancing Translational Sciences (NCATS), 2010).
# Hit rate of the full screen: of about 320,000 compounds, about 2,100 (0.66%) were called active. Inconclusive results, whose numbers are uncertain, are shown with a selection of clear calls. Calls come from the whole dose curve; as a rule, active = well fitted inhibition curve with a large enough effect in the signal ratio, with a control signal flat (not every such curve was filed as active); inconclusive = small, poorly fitted or top-dose-only effect, or effect the other way, or a change in a side signal; inactive = flat fitted curve, though single readings scatter; the % refers to the signal ratio. Potencies of inconclusive entries are doubtful fits and often do not repeat.
# Assay: qHTS Assay for Lipid Storage Modulators in Drosophila S3 Cells
# Conditions: BODIPY lipid droplet fluorescence, 18-24 h, cells fed with added oleic acid; lipid storage change, negative = inhibition: at 46.1 µM (top of the series) unless noted
# In short: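 Laser-scanning cytometry quantifies lipid droplet accumulation (500–530 nm total intensity; droplet/cell object ratio) in oleic acid-fed (400 uM added) Drosophila S3 cells treated with a concentration series. 20 uM Triacsin C defined 100% inhibition.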
# % is set by controls: 0 for no effect and ±100 for the full control effect; potency is the fitted concentration of half-maximal effect.
Compound,Potency,"lipid storage change, negative = inhibition"
CCCCC(OC(=O)CN1C(=O)COc2ccccc21)C(=O)NC1CCCCC1 (configuration not stated),"inconclusive: 0.116 µM [activator, single point]",
O=C(NCC1CCCCC1)c1ccc(F)cc1Cl,"inconclusive: 0.164 µM [falling, full curve]",
CC(=O)N1CC(C)Sc2ccc(S(=O)(=O)NCCc3cccc(C)c3)cc21 (configuration not stated),,inconclusive: 17.1%
COc1ccc(C(O)c2nc3ccccc3s2)cc1 (configuration not stated),"inconclusive: 0.13 µM [activator, full curve, poor fit]",
O=C(COC(=O)C1=Cc2ccccc2OC1)NCc1ccco1,,inconclusive: 16.5%
Cc1nnc(SCC(=O)N/N=C/c2cn(-c3ccccc3)nc2-c2ccc(F)cc2)n1-c1ccccc1,,inconclusive: 27.3%
CCS(=O)(=O)Nc1cccc(C2=NN(S(=O)(=O)c3ccccc3)C(c3ccco3)C2)c1 (configuration not stated),,inconclusive: 32.8%
CCN(CC)c1ccc2cc(C(=O)NCc3ccc(F)cc3)c(=N)oc2c1,,inconclusive: -100%
CCN(CC)c1ccc(NC(=O)c2ccco2)c(C)c1,"inconclusive: 5.8 µM [activator, full curve, poor fit]",
COC(=O)c1c(C)oc2ccc(N(C(=O)c3ccncc3)S(=O)(=O)c3ccc(C)cc3C)cc12,,inconclusive: -15.5%
COc1cc(C=O)ccc1Oc1cnccn1,,inconclusive: 25.5%
COc1ccccc1C1CC(c2ccc(Cl)cc2)Nc2ncnn21 (configuration not stated),,inconclusive: 95.8%
CC(=O)Nc1cccc(NC(=O)Nc2cccc(Cl)c2C)c1,,inconclusive: 7.03%
COC(=O)CCC(=O)OC1(C)C(=O)C2=CN(C(CO)CO)C(c3ccc(OC)cc3)=CC2=C(Br)C1=O (configuration not stated),,inconclusive: -9.91%
CC1(C)CC2CC(C)(CN2C(=O)c2cc(-c3ccccc3O)on2)C1 (configuration not stated),,inconclusive: 60.5% [activator]
COc1ccccc1/C=N/NS(=O)(=O)c1ccccc1,,inconclusive: 11.8%
C=CCNC(=O)c1ccccc1NS(=O)(=O)c1ccc(OC)c(C(=O)N2CCOCC2)c1,"inconclusive: 4.11 µM [activator, partial curve]",
Cc1cc(C(=O)Nc2ccc(Cl)c(S(=O)(=O)N3CCOCC3)c2)c2ccccc2n1,"inconclusive: 2.06 µM [falling, partial curve]",
CCc1c(C)nc(SCC(=O)N2CCN(c3ccccc3OC)CC2)[nH]c1=O,,inconclusive: 16.8%
O=C(CCc1ccccc1)Nc1nn[nH]n1,,inconclusive: -5.58%
CC(=O)c1ccc(Sc2ccccc2)cc1,"inconclusive: 29.1 µM [falling, single point]",
CCC(C(=O)OC)n1cnc2c(nnn2-c2ccc(C)cc2)c1=O (configuration not stated),"inconclusive: 9.2 µM [activator, partial curve, poor fit]",
O=C(O)Cc1csc(NC(=O)CSc2nnnn2-c2ccc(O)cc2)n1,,inconclusive: 3.04%
CCOC(=O)Cc1csc(NC(=O)COc2ccc(OC)cc2)n1,,inconclusive: 92.1%
COc1cc2c(c(OC)c1OC)CC(=O)N(C)CC2,,inconclusive: 5.41%
O=C(N/N=C/c1ccc(OC(=O)c2ccccc2)c([N+](=O)[O-])c1)c1ccc(O)cc1,,inconclusive: -6.84%

Compound,Potency,"lipid storage change, negative = inhibition"
O=C1CN(c2nc(-c3cccnc3)nc3sc4c(c23)CCCC4)CCN1,,inconclusive: 8.7%
O=C(c1cnn2ccccc12)N1CCCc2ccccc21,,inconclusive: 0.632%
CCN(CC(=O)NCc1cccs1)S(=O)(=O)c1cccc(C(C)=O)c1,"inconclusive: 8.2 µM [cytotoxic, partial curve]",
CCc1cc(Cn2nc(-c3ccccc3)cc2C(=O)NCc2cccc(C(F)(F)F)c2)on1,,inconclusive: -48.7%
COc1cc(OC)c(OC)cc1CNc1nnnn1C,,inconclusive: -9.2%
COc1ccc(CCNC(=O)CSC(=O)c2ccccc2)cc1OC,,inconclusive: 9.93%
COc1cc(C(=O)N2CCN(c3ccccc3)CC2)c([N+](=O)[O-])cc1OC,"inconclusive: 18.4 µM [activator, single point]",
CCn1c(C(=O)NC(C)c2ccc3c(c2)OCCO3)cc2sccc21 (configuration not stated),"inconclusive: 18.4 µM [falling, single point]",
N=C1C(c2ccccc2)=C(O)CN1c1ccccc1N1CCOCC1,,inconclusive: 55.5%
CC1CCN(CC(O)COCCC23CC4CC(CC(C4)C2)C3)CC1 (configuration not stated),,inconclusive: -17.2%
Cc1c(C(=O)NCCC2=CCCCC2)sc2ncnc(N3CCCCC3C)c12 (configuration not stated),,inconclusive: -0.908%
CCC(=O)N(CCC(c1ccccc1)c1ccco1)Cc1cccs1 (configuration not stated),,inactive
CN(CC(=O)NCCC1=CCCCC1)S(=O)(=O)c1ccc2c(c1)c(=O)n(C)c(=O)n2C,"inconclusive: 3.26 µM [falling, full curve, poor fit]",
CC(C)(C)C(=O)CSc1ncnc2c1cnn2-c1ccccc1,,inconclusive: 13.1%
COc1cccc(NC(=O)C2C3CCC4C(CCC32)C4(Cl)Cl)c1 (configuration not stated),,inconclusive: 9.41%
CC1CCCN(C(c2ccccc2)c2sc3ncnn3c2O)C1 (configuration not stated),,inconclusive: 4.94%
COc1cccc(NC(=S)NNC(=O)Cn2nc(C(F)(F)F)cc2C)c1,,inconclusive: 12.1%
O=C1C2C3C=CC(C3)C2C(=O)N1c1ccc(S(=O)(=O)Nc2nccs2)cc1 (configuration not stated),,inconclusive: -5.23%
CC(NC(=O)/C(=C\c1ccco1)NC(=O)c1ccco1)C(=O)O (configuration not stated),,inconclusive: 12.7%
COc1ccc(Cc2nc3ccc(C(=O)NCC4COCCO4)cc3o2)cc1 (configuration not stated),,inconclusive: 59.6%
O=C1Nc2cccnc2N(C(=O)CCl)c2ccccc21,,inconclusive: -8.9%
CC(C)NC(=O)C1CCCN(c2nnc(-n3cccc3)s2)C1 (configuration not stated),,inconclusive: 53%
COc1cccc(/C(O)=C2\C(=O)C(=O)N(c3ccccn3)C2c2cccc(OC)c2OC)c1 (configuration not stated),"inconclusive: 0.146 µM [activator, full curve, poor fit]",
CC(NC(=S)NNS(=O)(=O)c1cccc([N+](=O)[O-])c1)c1ccccc1 (configuration not stated),"inconclusive: 14.1 µM [falling, partial curve]",
COCCNC(=O)C(NC(=O)C1CCCCC1)C12CC3CC(CC(C3)C1)C2 (configuration not stated),"inconclusive: 0.146 µM [falling, full curve, poor fit]",
Cc1cc(C=O)c(C)n1-c1sc2c(c1C(=O)O)CCCC2,,inconclusive: -16%

Compound,Potency,"lipid storage change, negative = inhibition"
Cc1cc(C)cc(NC(=S)/C(=C(\[O-])c2ccc(Cl)cc2Cl)[n+]2ccccc2)c1,,inconclusive: 4.38%
CCC[N+]1(CC#CCC(c2ccccc2)c2ccccc2)CCCCC1,,inconclusive: -1.71%
O=C1c2ccc(-c3ccc4c(c3)C(=O)N(CCO)C4=O)cc2C(=O)N1CCO,"inconclusive: 0.461 µM [falling, full curve]",
CCC(C)NS(=O)(=O)c1ccc(OCC(=O)N2CCCC2)cc1 (configuration not stated),,inconclusive: 20.9%
COC(=O)c1ccc(CSc2nncn2N)cc1,,inconclusive: 9.42%
Fc1cccc(CSc2nc3ccncc3[nH]2)c1,"inconclusive: 9.2 µM [rising, partial curve]",
CN(Cc1c(C(=O)N/N=C/c2cccc(O)c2)nnn1-c1nonc1N)c1ccccc1,"inconclusive: 1.64 µM [falling, full curve]",
CCOc1ncccc1C(=O)N1CCN(c2ccc(C(F)(F)F)cn2)CC1,"inconclusive: 0.291 µM [rising, full curve]",
C/C(CC(=O)Nc1ccc(C)c(Cl)c1)=N\NC(=O)C1CCCCC1,,inconclusive: -34.2%
COC(=O)c1ccccc1NC(=O)CSc1nnc(-c2cccnc2)o1,"inconclusive: 23.1 µM [activator, single point]",
CN(C)S(=O)(=O)c1ccc(C(=O)OCC(=O)NCc2ccccc2)cc1,,inconclusive: -6.91%
CCC(C)[C@H]1COCCS(=O)(=O)N1Cc1ccc(C)cc1 (some centres not stated),,inconclusive: -33.7%
COc1ccc(CNC(=O)CCSc2ccc(F)cc2)cc1OC,,inconclusive: 31%
CCOc1ccc(C2CC(c3ccccc3)Nc3nc(N)nn32)cc1 (configuration not stated),,inconclusive: 8.77%
Cc1cc(C(C)(C)CC(C)(C)C)ccc1OCCOCC[N+](C)(C)Cc1ccccc1,"inconclusive: 14.6 µM [cytotoxic, partial curve]",
O=C(CN(Cc1ccccc1F)C(=O)c1csnn1)NCc1ccc2c(c1)OCO2,,inconclusive: 63.3%
COc1cc(/C=N/NC(=O)c2cc(C)n(-c3ccc(F)cc3)c2C)cc(OC)c1O,,inconclusive: 15.4%
Cc1ccc2sc(N3CCN(C(=O)C4=COCCO4)CC3)nc2c1C,,inconclusive: -62.1%
COc1ccc(NC(=O)CCCc2ccc(OC)c(C)c2)cc1,"inconclusive: 16.4 µM [activator, partial curve]",
Cc1cc(S(=O)(=O)NCCC2=CCCCC2)ccc1Br,,inconclusive
Cc1ccc(C)c2nc(N3CCCC3)c(C#N)cc12,"inconclusive: 2.06 µM [rising, full curve]",
O=S(=O)(c1cc(Cl)ccc1Cl)N1CCN(Cc2ccco2)CC1,,inconclusive: 27%
CCOC(=O)N1CCN(C(=O)/C(=C/c2ccc(N(C)C)cc2)NC(=O)c2ccccc2)CC1,"inconclusive: 18.4 µM [activator, partial curve]",
COc1ccc(-c2nnc(SC(C)C(=O)Nc3nccs3)n2-c2ccccc2)cc1OC (configuration not stated),"inconclusive: 1.64 µM [activator, partial curve]",
CCn1cc(C(=O)N2CCN(c3ccc(C(C)=O)cc3)CC2)c2cc(OC)c(OC)cc2c1=O,"inconclusive: 14.6 µM [rising, partial curve]",

# 5 of the compounds above, with tabs.
Compound	Potency	lipid storage change, negative = inhibition
CN(Cc1c(C(=O)N/N=C/c2cccc(O)c2)nnn1-c1nonc1N)c1ccccc1	inconclusive: 1.64 µM [falling, full curve]	
CCOc1ncccc1C(=O)N1CCN(c2ccc(C(F)(F)F)cn2)CC1	inconclusive: 0.291 µM [rising, full curve]	
C/C(CC(=O)Nc1ccc(C)c(Cl)c1)=N\NC(=O)C1CCCCC1		inconclusive: -34.2%
COC(=O)c1ccccc1NC(=O)CSc1nnc(-c2cccnc2)o1	inconclusive: 23.1 µM [activator, single point]	
CN(C)S(=O)(=O)c1ccc(C(=O)OCC(=O)NCc2ccccc2)cc1		inconclusive: -6.91%
